Measured values from PMC7822592, “The half-life of the bone-derived hormone osteocalcin is regulated through O-glycosylation in mice, but not in humans” (eLife, 2020).
Where two headings read alike, the source gives them in different places.

What was measured:
[1] = human, mean ± SD, 2013, Cioffi et al., 1997, cited from earlier work
[2] = OCN serum levels in wildtype mice at different ages; type: in vivo, mouse; details: for Serum osteocalcin concentration: wild type male mice; for OCN serum levels: wildtype male mice, mean ± SD

In the case of “OCN: Osteocalcin, peptide hormone secreted by osteoblasts; endogenous serum protein in mouse or human (YLYQWLGAPVPYPDPLEPRREVCELNPDCDELADHIGFQEAYRRFYGPV; Osteocalcin; UniProt P02818 52-100, looked up)”, the OCN serum levels ([1]; 1 year old, n = 43, ref Hannemann et al.) is listed as 62.9 ± 8.1 (43) ng/ml, the OCN serum levels ([1]; 11–13 years old, n = 41, ref Hannemann et al.) is listed as 74.1 ± 8.9 (41) ng/ml and the OCN serum levels ([1]; 25–29 years old, n = 49, ref Hannemann et al.) is listed as 21.0 ± 6.3 (49) ng/ml. The OCN serum levels ([1]; 50–54 years old, n = 127, ref Hannemann et al.) was 13.5 ± 6.3 (127) ng/ml, the Serum osteocalcin concentration ([2]; 2 weeks old, mouse 1) was 1639.7 ng/mL and the Serum osteocalcin concentration ([2]; 2 weeks old, mouse 2) was 1232.6 ng/mL. The Serum osteocalcin concentration ([2]; 2 weeks old, mouse 3) was 1173.8 ng/mL, the Serum osteocalcin concentration ([2]; 2 weeks old, mouse 4) was 1429.5 ng/mL and the Serum osteocalcin concentration ([2]; 2 weeks old, mouse 5) was 1360.3 ng/mL. For the same substance, the Serum osteocalcin concentration ([2]; 2 weeks old, mouse 6) was 1387.8 ng/mL, the Serum osteocalcin concentration ([2]; 2 weeks old, mouse 7) was 1275.8 ng/mL and the Serum osteocalcin concentration ([2]; 2 weeks old, mouse 8) was 1457.8 ng/mL. It also gave a Serum osteocalcin concentration ([2]; 4 weeks old, mouse 1) of 399.3 ng/mL, a Serum osteocalcin concentration ([2]; 4 weeks old, mouse 2) of 572.3 ng/mL and a Serum osteocalcin concentration ([2]; 4 weeks old, mouse 3) of 892.7 ng/mL. It also gave a Serum osteocalcin concentration ([2]; 4 weeks old, mouse 4) of 504.0 ng/mL, a Serum osteocalcin concentration ([2]; 4 weeks old, mouse 5) of 717.3 ng/mL and a Serum osteocalcin concentration ([2]; 13 weeks old, mouse 1) of 255.0 ng/mL. It also gave a Serum osteocalcin concentration ([2]; 13 weeks old, mouse 2) of 245.8 ng/mL, a Serum osteocalcin concentration ([2]; 13 weeks old, mouse 3) of 245.8 ng/mL and a Serum osteocalcin concentration ([2]; 13 weeks old, mouse 4) of 262.2 ng/mL. The Serum osteocalcin concentration ([2]; 60 weeks old, mouse 1) was 60.7 ng/mL, the Serum osteocalcin concentration ([2]; 60 weeks old, mouse 2) was 45.9 ng/mL and the Serum osteocalcin concentration ([2]; 60 weeks old, mouse 3) was 45.6 ng/mL. The Serum osteocalcin concentration ([2]; 60 weeks old, mouse 4) was 47.7 ng/mL, the OCN serum levels ([2]; 2 weeks, n = 8, ELISA) was 1369.7 ± 146.7 (8) ng/ml and the OCN serum levels ([2]; 4 weeks, n = 5, ELISA) was 617.2 ± 192.5 (5) ng/ml. The OCN serum levels ([2]; 13 weeks, n = 4, ELISA) was 252.2 ± 8.0 (4) ng/ml and the OCN serum levels ([2]; 60 weeks, n = 4, ELISA) was 50.0 ± 7.2 (4) ng/ml.
